{"source": "paper PMC5996148", "experiment_in_all_cases": "protein microarray (ProtoArray v5.0), streptavidin-Alexa Fluor 647", "details_in_all_cases": "3'-biotin; 20 mM Tris (pH 7.5), 5 mM MgCl2, 100 mM KCl, 0.1% Tween-20, A/T-rich and random oligonucleotide blockers; temperature not stated; high values mean tight binding", "key": {"[1]": {"system": "Calcium/calmodulin-dependent protein kinase type 1 (human)"}, "[2]": {"system": "Calcyclin-binding protein (human)"}, "Calretinin (human)": {"system": "Calretinin (human)"}, "[3]": {"system": "Carbonic anhydrase 3 (human)"}, "[4]": {"system": "Carboxypeptidase A2 (human)"}, "[5]": {"system": "Casein kinase I isoform gamma-2 (human)"}, "[6]": {"system": "Caspase recruitment domain-containing protein 14 (human)"}, "[7]": {"system": "Caspase recruitment domain-containing protein 9 (human)"}, "[8]": {"system": "Centromere protein Q (human)"}, "[9]": {"system": "Ciliary neurotrophic factor (human)"}}, "note": "This is one part of the list."}
{"sequence": "GGTGACAGGGGTATGGGGAGGGG [G4-2 biotinylated (Ct1)]", "values": [{"measurement": "binding signal", "setting": "[1]", "value": -0.401, "unit": "z-score"}, {"measurement": "binding signal", "setting": "[2]", "value": 4.06, "unit": "z-score"}, {"measurement": "binding signal", "setting": "Calretinin (human)", "value": -0.38, "unit": "z-score"}, {"measurement": "binding signal", "setting": "[3]", "value": -0.386, "unit": "z-score"}, {"measurement": "binding signal", "setting": "[4]", "value": -0.376, "unit": "z-score"}, {"measurement": "binding signal", "setting": "[5]", "value": 4.69, "unit": "z-score"}, {"measurement": "binding signal", "setting": "[6]", "value": -0.371, "unit": "z-score"}, {"measurement": "binding signal", "setting": "[7]", "value": -0.375, "unit": "z-score"}, {"measurement": "binding signal", "setting": "[8]", "value": -0.404, "unit": "z-score"}, {"measurement": "binding signal", "setting": "[9]", "value": -0.398, "unit": "z-score"}]}
